# Data as given in the supplement of paper PMC8728848.
# The other results are listed elsewhere or left out.
# B1: PEB4 (Campylobacter jejuni), A1VYV6 (protein)
# chain: MKKFSLVAAALIAGVALNVNAATVATVNGKSISDAEVSEFFAPMLRGQDFKTLPDNQKKALIQQYIMQDLILQDAKKQNLEKDPLYTKELDRAKDAILVNVYQEKILNTIKIDAAKVKAFYDQNKDKYVKPARVQAKHILVATEKEAKDIINELKGLKGKELDAKFSELAKEKSIDPGSKNQGGELGWFDQSTMVKPFTDAAFALKNGTITTTPVKTNFGYHVILKENSQAKGQIKFDEVKQGIENGLKFEEFKKVINQKGQDLLNSAKVEYK
# Assays:
# Assay in all cases: glycan array binding signal (z-score within array); higher = stronger binding
# Conditions in all cases: glycan notation: IUPAC condensed, linker removed
# [1] = target: Neu5Ac(a2-3)Gal(b1-3)GlcNAc(b1-3)Gal(b1-3)GlcNAc
# Summary of the method: (§1)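 The binding signal is a Z-score computed within each array. Data were drawn from 3228 arrays in the Consortium for Functional Glycomics database, restricted to those with a known protein sequence. Scores were averaged over arrays of the same protein sequence at different concentrations or buffers, and over linkers, and negative values can be taken as non-binding.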
# [2] = target: Neu5Ac(a2-3)Gal(b1-3)GlcNAc(b1-3)Gal(b1-4)GlcNAc
# Summary of the method: as §1
# [3] = target: Neu5Ac(a2-3)Gal(b1-3)GlcNAc(b1-3)GalNAc
# Summary of the method: as §1
# [4] = target: Neu5Ac(a2-3)Gal(b1-3)GlcNAc6S
# Summary of the method: as §1
# [5] = target: Neu5Ac(a2-3)Gal(b1-3)[Fuc(a1-4)]GlcNAc
# Summary of the method: as §1
# [6] = target: Neu5Ac(a2-3)Gal(b1-3)[Fuc(a1-4)]GlcNAc(b1-3)Gal(b1-3)[Fuc(a1-4)]GlcNAc
# Summary of the method: as §1
# [7] = target: Neu5Ac(a2-3)Gal(b1-3)[Fuc(a1-4)]GlcNAc(b1-3)Gal(b1-4)[Fuc(a1-3)]GlcNAc
# Summary of the method: as §1
# [8] = target: Neu5Ac(a2-3)Gal(b1-3)[Neu5Ac(a2-3)Gal(b1-4)]GlcNAc
# Summary of the method: as §1
# [9] = target: Neu5Ac(a2-3)Gal(b1-3)[Neu5Ac(a2-6)]GalNAc
# Summary of the method: as §1
# [10] = target: Neu5Ac(a2-3)Gal(b1-4)Glc
# Summary of the method: as §1
# [11] = target: Neu5Ac(a2-3)Gal(b1-4)GlcNAc
# Summary of the method: as §1
# [12] = target: Neu5Ac(a2-3)Gal(b1-4)GlcNAc(b1-2)Man(a1-3)[GlcNAc(b1-2)Man(b1-4)GlcNAc(b1-2)Man(a1-6)]Man(b1-4)GlcNAc(b1-4)GlcNAc
# Summary of the method: as §1
# [13] = target: Neu5Ac(a2-3)Gal(b1-4)GlcNAc(b1-2)Man(a1-3)[Neu5Ac(a2-6)Gal(b1-4)GlcNAc(b1-2)Man(a1-6)]Man(b1-4)GlcNAc(b1-4)GlcNAc
# Summary of the method: as §1
# [14] = target: Neu5Ac(a2-3)Gal(b1-4)GlcNAc(b1-3)Gal(b1-3)GlcNAc
# Summary of the method: as §1
# [15] = target: Neu5Ac(a2-3)Gal(b1-4)GlcNAc(b1-3)Gal(b1-4)GlcNAc
# Summary of the method: as §1
# [16] = target: Neu5Ac(a2-3)Gal(b1-4)GlcNAc(b1-3)Gal(b1-4)GlcNAc(b1-3)Gal(b1-4)GlcNAc
# Summary of the method: as §1
# [17] = target: Neu5Ac(a2-3)Gal(b1-4)GlcNAc(b1-3)Gal(b1-4)[Fuc(a1-3)]GlcNAc
# Summary of the method: as §1
# [18] = target: Neu5Ac(a2-3)Gal(b1-4)GlcNAc(b1-3)GalNAc
# Summary of the method: as §1
# [19] = target: Neu5Ac(a2-3)Gal(b1-4)GlcNAc(b1-6)[Gal(b1-3)]GalNAc
# Summary of the method: as §1
# [20] = target: Neu5Ac(a2-3)Gal(b1-4)GlcNAc(b1-6)[Neu5Ac(a2-3)Gal(b1-3)]GalNAc
# Summary of the method: as §1
# [21] = target: Neu5Ac(a2-3)Gal(b1-4)GlcNAc6S
# Summary of the method: as §1
# [22] = target: Neu5Ac(a2-3)Gal(b1-4)[Fuc(a1-3)]GlcNAc
# Summary of the method: as §1
# [23] = target: Neu5Ac(a2-3)Gal(b1-4)[Fuc(a1-3)]GlcNAc(b1-3)Gal
# Summary of the method: as §1
# [24] = target: Neu5Ac(a2-3)Gal(b1-4)[Fuc(a1-3)]GlcNAc(b1-3)Gal(b1-4)GlcNAc
# Summary of the method: as §1
# [25] = target: Neu5Ac(a2-3)Gal(b1-4)[Fuc(a1-3)]GlcNAc(b1-3)Gal(b1-4)[Fuc(a1-3)]GlcNAc(b1-3)Gal(b1-4)[Fuc(a1-3)]GlcNAc
# Summary of the method: as §1
# [26] = target: Neu5Ac(a2-3)Gal(b1-4)[Fuc(a1-3)]GlcNAc(b1-3)GalNAc
# Summary of the method: as §1
# [27] = target: Neu5Ac(a2-3)Gal(b1-4)[Fuc(a1-3)]GlcNAc(b1-6)[Gal(b1-3)]GalNAc
# Summary of the method: as §1
# [28] = target: Neu5Ac(a2-3)Gal(b1-4)[Fuc(a1-3)]GlcNAc(b1-6)[Neu5Ac(a2-3)Gal(b1-3)]GalNAc
# Summary of the method: as §1
# [29] = target: Neu5Ac(a2-3)Gal(b1-4)[Fuc(a1-3)]GlcNAc6S
# Summary of the method: as §1
# [30] = target: Neu5Ac(a2-3)Gal6S(b1-4)GlcNAc
# Summary of the method: as §1
# [31] = target: Neu5Ac(a2-3)Gal6S(b1-4)[Fuc(a1-3)]GlcNAc
# Summary of the method: as §1
# [32] = target: Neu5Ac(a2-3)GalNAc
# Summary of the method: as §1
# [33] = target: Neu5Ac(a2-3)GalNAc(b1-4)GlcNAc
# Summary of the method: as §1
# [34] = target: Neu5Ac(a2-3)[GalNAc(b1-4)]Gal(b1-4)Glc
# Summary of the method: as §1
# [35] = target: Neu5Ac(a2-3)[GalNAc(b1-4)]Gal(b1-4)GlcNAc
# Summary of the method: as §1
# [36] = target: Neu5Ac(a2-3)[GalNAc(b1-4)]Gal(b1-4)GlcNAc(b1-3)GalNAc
# Summary of the method: as §1
# [37] = target: Neu5Ac(a2-3)[Neu5Ac(a2-6)]GalNAc
# Summary of the method: as §1
# [38] = target: Neu5Ac(a2-6)Gal
# Summary of the method: as §1
# [39] = target: Neu5Ac(a2-6)Gal(b1-4)Glc
# Summary of the method: as §1
# [40] = target: Neu5Ac(a2-6)Gal(b1-4)GlcNAc
# Summary of the method: as §1
binder,measurement,setting,value
B1,glycan array binding signal (z-score),[1],-0.619
same,glycan array binding signal (z-score),[2],-0.833
same,glycan array binding signal (z-score),[3],-1.02
same,glycan array binding signal (z-score),[4],-1.09
same,glycan array binding signal (z-score),[5],-1.07
same,glycan array binding signal (z-score),[6],-0.853
same,glycan array binding signal (z-score),[7],-0.076
same,glycan array binding signal (z-score),[8],-0.455
same,glycan array binding signal (z-score),[9],0.189
same,glycan array binding signal (z-score),[10],0.378
same,glycan array binding signal (z-score),[11],-0.737
same,glycan array binding signal (z-score),[12],-0.245
same,glycan array binding signal (z-score),[13],0.812
same,glycan array binding signal (z-score),[14],-0.489
same,glycan array binding signal (z-score),[15],0.491
same,glycan array binding signal (z-score),[16],0.263
same,glycan array binding signal (z-score),[17],0.086
same,glycan array binding signal (z-score),[18],0.116
same,glycan array binding signal (z-score),[19],-1.19
same,glycan array binding signal (z-score),[20],-0.505
same,glycan array binding signal (z-score),[21],0.139
same,glycan array binding signal (z-score),[22],-0.828
same,glycan array binding signal (z-score),[23],-0.338
same,glycan array binding signal (z-score),[24],-0.192
same,glycan array binding signal (z-score),[25],2.42
same,glycan array binding signal (z-score),[26],5.24
same,glycan array binding signal (z-score),[27],1.91
same,glycan array binding signal (z-score),[28],0.46
same,glycan array binding signal (z-score),[29],-0.884
same,glycan array binding signal (z-score),[30],1.6
same,glycan array binding signal (z-score),[31],2.8
same,glycan array binding signal (z-score),[32],-0.192
same,glycan array binding signal (z-score),[33],-1.65
same,glycan array binding signal (z-score),[34],-1.19
same,glycan array binding signal (z-score),[35],0.794
same,glycan array binding signal (z-score),[36],-0.544
same,glycan array binding signal (z-score),[37],-0.037
same,glycan array binding signal (z-score),[38],0.075
same,glycan array binding signal (z-score),[39],-0.082
same,glycan array binding signal (z-score),[40],-0.245

# 3 neighbouring records out of the list so far, quoted:
binder,measurement,setting,value
B1,glycan array binding signal (z-score),[9],0.189
same,glycan array binding signal (z-score),[10],0.378
same,glycan array binding signal (z-score),[11],-0.737
